Measured values published in patent US20050196743A1.
Results are given in words; binding and its absence hold for the method and conditions named. Some entries that bind do so weakly or less than the wild type. Sequences can lack the tags named with a protein.

Sequences of proteins named here, by UniProt entry; tags and fusion partners are left off. A change or cut given only in a name is not applied to a line headed by its entry.
UniProt P32781: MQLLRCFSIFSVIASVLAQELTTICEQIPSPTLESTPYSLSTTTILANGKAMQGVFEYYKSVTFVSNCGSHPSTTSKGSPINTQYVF
UniProt P32323: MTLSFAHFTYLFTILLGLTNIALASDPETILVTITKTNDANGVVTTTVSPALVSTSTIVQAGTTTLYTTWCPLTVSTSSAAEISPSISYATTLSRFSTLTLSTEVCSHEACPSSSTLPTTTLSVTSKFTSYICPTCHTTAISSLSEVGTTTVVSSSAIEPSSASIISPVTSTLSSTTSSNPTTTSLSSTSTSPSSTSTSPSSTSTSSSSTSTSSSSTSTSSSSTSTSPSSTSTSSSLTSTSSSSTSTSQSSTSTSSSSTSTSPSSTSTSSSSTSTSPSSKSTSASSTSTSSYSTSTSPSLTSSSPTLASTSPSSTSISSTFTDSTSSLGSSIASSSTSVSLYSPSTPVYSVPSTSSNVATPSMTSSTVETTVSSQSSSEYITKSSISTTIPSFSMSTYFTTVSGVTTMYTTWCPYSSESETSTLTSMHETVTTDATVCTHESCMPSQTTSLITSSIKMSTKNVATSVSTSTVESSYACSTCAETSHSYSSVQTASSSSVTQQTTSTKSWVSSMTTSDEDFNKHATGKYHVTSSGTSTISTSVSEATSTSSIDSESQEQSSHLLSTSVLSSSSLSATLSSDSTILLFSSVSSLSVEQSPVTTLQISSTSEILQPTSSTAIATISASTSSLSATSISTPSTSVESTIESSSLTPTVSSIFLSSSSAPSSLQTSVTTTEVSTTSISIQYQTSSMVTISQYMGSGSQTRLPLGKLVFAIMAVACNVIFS

Tests used:
[1] = biological target: T1, a-agglutinin (Aga1 protein with disulfide-linked Aga2 protein) on the surface of α-factor-treated MATa cells (Saccharomyces cerevisiae) (UniProt P32781+P32323); test: summary of the whole-cell binding and ELISA-like assays of Example 3
[2] = biological target: T1, a-agglutinin (Aga1 protein with disulfide-linked Aga2 protein) on the surface of α-factor-treated MATa cells (Saccharomyces cerevisiae); test: whole-cell binding to strain CY1892 with or without 100 nM α-factor; bound protein released with 2% SDS; Western blot with anti-Xpress

B1: Sag1p^21-352 (N-terminal domain of the α-agglutinin Sag1 protein with (His)6 tag, Xpress epitope and enterokinase cleavage site at the N-terminus) (protein, Saccharomyces cerevisiae, UniProt P20840 21-352, looked up, not shown: small tags and cut ends)
chain: NINDITFSNLEITPLTANKQPDQGWTATFDFSIADASSIREGDEFTLSMPHVYRIKLLNSSQTATISLADGTEAFKCYVSQQAAYLYENTTFTCTAQNDLSSYNTIDGSITFSLNFSDGGSSYEYELENAKFFKSGPMLVKLGNQMSDVVNFDPAAFTENVFHSGRSTGYGSFESYHLGMYCPNGYFLGGTEKIDYDSSNNNVDLDCSSVQVYSSNDFNDWWFPQSYNDTNADVTCFGSNLWITLDEKLYDGEMLWVNALQSLPANVNTIDHALEFQYTCLDTIANTTYATQFSTTREFIVYQGRNLGTASAKSSFISTTTTDLTSINTSAY
modifications: highly N-glycosylated
[1]
  binding: binds
[2]
  binding: binds
